Reference: publication PMC5351672

Chains of the proteins cited; added tags and fusions are not shown. Lines headed by an entry give the natural chain unless they say otherwise; changes in a name come on top.
UniProt P05556: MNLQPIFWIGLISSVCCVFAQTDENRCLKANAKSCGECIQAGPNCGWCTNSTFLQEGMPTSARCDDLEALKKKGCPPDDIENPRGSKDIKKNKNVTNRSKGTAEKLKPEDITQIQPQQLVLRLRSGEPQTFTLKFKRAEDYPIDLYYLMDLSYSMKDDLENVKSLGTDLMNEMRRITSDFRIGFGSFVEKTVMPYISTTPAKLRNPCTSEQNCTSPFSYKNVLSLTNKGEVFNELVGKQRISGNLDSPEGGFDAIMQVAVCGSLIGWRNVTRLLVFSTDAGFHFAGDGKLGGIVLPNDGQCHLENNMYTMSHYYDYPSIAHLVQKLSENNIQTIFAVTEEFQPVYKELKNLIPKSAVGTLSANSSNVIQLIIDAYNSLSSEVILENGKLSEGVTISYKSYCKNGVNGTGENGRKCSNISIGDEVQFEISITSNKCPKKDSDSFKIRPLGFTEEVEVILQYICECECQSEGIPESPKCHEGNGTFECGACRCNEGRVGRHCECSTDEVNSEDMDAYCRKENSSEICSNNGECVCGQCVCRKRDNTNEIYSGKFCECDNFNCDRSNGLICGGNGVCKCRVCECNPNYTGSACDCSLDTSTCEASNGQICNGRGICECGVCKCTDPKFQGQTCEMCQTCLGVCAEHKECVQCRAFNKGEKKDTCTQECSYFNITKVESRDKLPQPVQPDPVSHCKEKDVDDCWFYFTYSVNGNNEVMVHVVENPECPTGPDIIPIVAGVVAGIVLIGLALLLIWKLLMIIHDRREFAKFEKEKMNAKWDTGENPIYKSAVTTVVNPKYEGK
UniProt O14576: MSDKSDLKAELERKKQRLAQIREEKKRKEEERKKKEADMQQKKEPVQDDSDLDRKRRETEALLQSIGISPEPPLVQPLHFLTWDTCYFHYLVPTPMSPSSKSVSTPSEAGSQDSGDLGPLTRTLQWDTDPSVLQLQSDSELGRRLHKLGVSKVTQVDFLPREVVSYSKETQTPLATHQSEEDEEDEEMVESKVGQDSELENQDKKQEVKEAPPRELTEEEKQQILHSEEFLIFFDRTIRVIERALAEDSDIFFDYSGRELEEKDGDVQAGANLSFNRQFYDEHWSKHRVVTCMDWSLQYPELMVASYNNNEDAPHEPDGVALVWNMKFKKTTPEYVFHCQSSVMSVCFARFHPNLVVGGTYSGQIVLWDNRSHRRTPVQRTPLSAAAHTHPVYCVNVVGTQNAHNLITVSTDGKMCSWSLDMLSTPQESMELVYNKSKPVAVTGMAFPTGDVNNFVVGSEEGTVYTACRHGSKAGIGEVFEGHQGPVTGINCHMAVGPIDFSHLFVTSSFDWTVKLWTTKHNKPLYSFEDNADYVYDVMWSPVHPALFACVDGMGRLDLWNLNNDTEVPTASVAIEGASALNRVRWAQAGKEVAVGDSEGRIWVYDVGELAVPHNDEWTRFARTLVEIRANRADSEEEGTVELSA
UniProt P17096: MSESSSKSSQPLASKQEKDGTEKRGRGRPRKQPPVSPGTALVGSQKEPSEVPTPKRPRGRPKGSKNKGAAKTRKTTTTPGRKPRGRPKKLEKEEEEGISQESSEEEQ
UniProt P09382: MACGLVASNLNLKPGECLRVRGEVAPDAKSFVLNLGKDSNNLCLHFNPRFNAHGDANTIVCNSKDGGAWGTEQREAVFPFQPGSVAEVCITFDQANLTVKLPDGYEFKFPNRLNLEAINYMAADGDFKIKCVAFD
UniProt P60903: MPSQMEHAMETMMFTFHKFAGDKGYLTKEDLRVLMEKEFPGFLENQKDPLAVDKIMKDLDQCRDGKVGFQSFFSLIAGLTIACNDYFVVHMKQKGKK
UniProt Q07065: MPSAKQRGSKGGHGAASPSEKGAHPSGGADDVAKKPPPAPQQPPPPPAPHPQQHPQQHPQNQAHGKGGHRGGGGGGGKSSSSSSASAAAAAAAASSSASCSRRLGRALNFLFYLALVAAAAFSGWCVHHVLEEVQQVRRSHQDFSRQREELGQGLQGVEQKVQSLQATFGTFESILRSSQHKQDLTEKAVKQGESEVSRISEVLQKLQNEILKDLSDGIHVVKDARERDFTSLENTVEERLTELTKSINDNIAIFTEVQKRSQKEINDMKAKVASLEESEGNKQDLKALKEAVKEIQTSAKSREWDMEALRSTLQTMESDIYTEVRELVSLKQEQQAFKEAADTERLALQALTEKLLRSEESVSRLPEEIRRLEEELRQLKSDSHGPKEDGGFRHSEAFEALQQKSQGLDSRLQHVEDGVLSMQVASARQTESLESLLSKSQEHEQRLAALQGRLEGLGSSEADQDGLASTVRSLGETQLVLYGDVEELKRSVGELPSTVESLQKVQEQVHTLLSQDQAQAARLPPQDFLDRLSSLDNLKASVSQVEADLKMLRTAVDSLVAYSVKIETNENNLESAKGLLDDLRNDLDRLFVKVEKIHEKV
UniProt Q09028: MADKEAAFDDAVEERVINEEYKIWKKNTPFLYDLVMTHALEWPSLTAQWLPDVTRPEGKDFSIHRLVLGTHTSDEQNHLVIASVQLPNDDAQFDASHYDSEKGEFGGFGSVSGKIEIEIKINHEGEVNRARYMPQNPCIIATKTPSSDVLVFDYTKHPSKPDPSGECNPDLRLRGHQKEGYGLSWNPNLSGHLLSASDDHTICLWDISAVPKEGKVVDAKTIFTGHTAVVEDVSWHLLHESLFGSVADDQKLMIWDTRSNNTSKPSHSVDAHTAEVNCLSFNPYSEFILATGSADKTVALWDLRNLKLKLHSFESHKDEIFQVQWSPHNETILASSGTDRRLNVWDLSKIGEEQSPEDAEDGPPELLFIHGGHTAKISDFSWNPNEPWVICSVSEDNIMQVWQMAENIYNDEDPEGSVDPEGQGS

T1: calgranulin B-FLAG (UniProt P06702)
T1 sequence: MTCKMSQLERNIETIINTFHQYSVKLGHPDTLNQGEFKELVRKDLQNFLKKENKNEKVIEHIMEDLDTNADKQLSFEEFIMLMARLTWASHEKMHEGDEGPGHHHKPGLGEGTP


molecular target: T1, calgranulin B-FLAG; assay: affinity purification with mass spectrometry; whole homogenates of pLenti6-calgranulin B-FLAG- and pLenti6-Con-infected HCT-116 cells on anti-FLAG M2 affinity gel; SDS-PAGE slices, LC-MS/MS; proteins also found in the pLenti6-Con precipitate were removed

Row | binding | Molecule
1 | binds | flotillin-1 (protein, UniProt O75955 1-427) MFFTCGPNEAMVVSGFCRSPPVMVAGGRVFVLPCIQQIQRISLNTLTLNVKSEKVYTRHGVPISVTGIAQVKIQGQNKEMLAAACQMFLGKTEAEIAHIALETLEGHQRAIMAHMTVEEIYKDRQKFSEQVFKVASSDLVNMGISVVSYTLKDIHDDQDYLHSLGKARTAQVQKDARIGEAEAKRDAGIREAKAKQEKVSAQYLSEIEMAKAQRDYELKKAAYDIEVNTRRAQADLAYQLQVAKTKQQIEEQRVQVQVVERAQQVAVQEQEIARREKELEARVRKPAEAERYKLERLAEAEKSQLIMQAEAEAASVRMRGEAEAFAIGARARAEAEQMAKKAEAFQLYQEAAQLDMLLEKLPQVAEEISGPLTSANKITLVSSGSGTMGAAKVTGEVLDILTRLPESVERLTGVSISQVNHKPLRTA
2 | binds | CD59 glycoprotein (protein, UniProt P13987 26-102) LQCYNCPNPTADCKTAVNCSSDFDACLITKAGLQVYNKCWKFEHCNFNDVTTRLRENELTYYCCKKDLCNFNEQLEN

molecular target: T1, calgranulin B-FLAG; assay: as above; remark: another data set of the same source

Row | Molecule | binding
3 | ITGA3 (human (endogenous in HCT-116)) | binds
4 | ITGB1 (from UniProt P05556 21-798) | binds
5 | dynein intermediate chain 1 (from UniProt O14576 1-645) | binds
6 | high mobility group AT-hook1 (from UniProt P17096 1-107) | binds

Results, then the molecule that gave them:

Row | binding | Molecule
7 | binds | LGALS1 (from UniProt P09382 1-135)
8 | binds | calcium-binding protein A10 (from UniProt P60903 1-97)
9 | binds | cytoskeleton-associated protein 4 (from UniProt Q07065 1-602)
10 | binds | retinoblastoma binding protein 4 (from UniProt Q09028 1-425)

These are yes or no findings as the source states them, for the method shown. Binding seen in cells or lysates may run through a third protein. These calls come from enrichment with a bait or labelling near it, and not all partners need be listed. Where a sequence is shown, tags or fusion partners need not be part of it.
